Data as given in patent USRE46698E1, “Use of cyclohexanol derivatives as antimicrobial active compounds” (MERCK PATENT GMBH, priority 2011, dated 2018).

Assay: Deodorant action, inherent odour (Example 2)

Q: For `CCCCOC(=O)C1CCC(O)CC1` (stereo not shown) [Substance I-20, 4-hydroxycyclohexanecarboxylic acid butyl ester], which Inherent odour is on record?
A: of raspberry
